Assay results published in US5004565A, “Method and compositions providing enhanced chemiluminescence from 1,2-dioxetanes” (priority 1988, dated 1991).
Structures can show the parent of a compound that is named as a salt.

Tests used:
[1] = Fluoride-triggered chemiluminescence of silyl-protected dioxetane
[2] = Base-triggered chemiluminescence in aqueous CTAB micelles, with or without fluorescent co-surfactant
[3] = Base-triggered chemiluminescence in DMSO or water; conditions: for chemiluminescence quantum yield (ΦCl): base
[4] = test system: alkaline phosphatase from bovine intestinal mucosa; test: Triggering of 2c with alkaline phosphatase from bovine intestinal mucosa; assay type: biochemical
Source text: The chemiluminescence quantum yield (.PHI.CL) for the decomposition of dioxetanes is defined as the ratio of einsteins of chemiluminescence emitted to moles of dioxetane decomposed. Sufficient energy is released during the reaction from the reaction enthalpy (ΔHR) plus the Arrhenius activation energy (Ea) to populate the singlet excited state of one of the carbonyl cleavage products. Therefore, the maximum quantum yield is 1.0. Another parameter of interest is the chemiexcitation quantum yield (.PHI.CE) which is defined as the ratio of excited states formed to dioxetane decomposed.
The same procedure as those employed in the measurement of the decay kinetics was used for the determination of chemiluminescence quantum yields with the following modifications. An accurately measured aliquot of a dioxetane stock solution of known concentration was added to 3 mL of the pre-thermostatted organic solvent or aqueous buffer. The reaction was then triggered by adding the appropriate chemical reagent or enzyme. The total light intensity was integrated by a photon-counting luminometer using an RCA A-31034A gallium-arsenide PMT cooled to -78° C.
2. Triggering the Chemiluminescence of 2c with Alkaline Phosphatase from Bovine Intestinal Mucosa. Alkaline phosphatase from bovine intestinal mucosa was obtained from Sigma Chemical Co. as a suspension of 5.1 mg of protein per mL of 3.2 M (NH4)2 SO4 solution.
3. […] Alkaline phosphatase experiments with dioxetane 2c were conducted at 37° C. with 3 mL of a solution containing: 2c (4.3×10^-5 M), 221 buffer (0.75 M, pH 9.1), Mg(OAc)2 (8.0×10^-4 M), CTAB (1.13×10^-3 M), and fluorescein surfactant 3 (5.6×10^-5 M). […]
Enzymatic triggering experiments such as those described above were also carried out in Immumlon™ microtitre wells from Dynatech, Inc. made of transparent polystyrene. […] The chemiluminescence was detected at the bottom of the well using a fiber optic connected to the photon-counting luminometer described previously. […]

[5] = CTAB 1.5×10^-3 M with fluorescein surfactant 3 (9×10^-5 M), base, 37° C.

COC1(c2cccc(O[Si](C)(C)C(C)(C)C)c2)OOC12C1CC3CC(C1)CC2C3 (centres unmarked)
efficiency for the formation of the singlet excited ester (singlet chemiexcitation) ([1]; corrected for fluorescence quantum yield): 57%
chemiluminescence efficiency ([1]; fluoride-triggered): 25%
chemiluminescence maximum ([1]; fluoride-triggered, DMSO): 470 nm

CCCCCCCCCCCCCCCCNC(=O)c1nc2ccc(O)cc2s1 [compound 4, 1-Hexadecyl-6-hydroxy-2-benzothiazamide]
λmax of chemiluminescence ([2]; benzothiazamide surfactant 4 as co-surfactant): 506 nm

COC1(c2cccc(O)c2)OOC12C1CC3CC(C1)CC2C3 (centres unmarked) [dioxetane 2a, 4-(3-Hydroxyphenyl)-4-methoxyspiro[1,2-dioxetane-3,2'-adamantane]]
emission maximum for the chemiluminescence ([3]; DMSO, tetra-n-butylammonium hydroxide, room temperature): 470 nm
chemiluminescence quantum yield (ΦCl) ([3]; DMSO): 0.25

COC1(c2cccc(OC(C)=O)c2)OOC12C1CC3CC(C1)CC2C3 (centres unmarked) [dioxetane 2b]
chemiluminescence efficiency [2, 5]: 1.4%
chemiluminescence quantum yield (ΦCL) [2, 5]: 0.014
chemiluminescence quantum yield (ΦCl) ([2]; CTAB micelles above cmc, NaOH, 37° C., no fluorescer): 1.7×10^-4
increase over the luminescence in the absence of CTAB and 3 ([2]; CTAB with fluorescein surfactant 3, base, 37° C.): 500 fold
increase in chemiluminescence quantum yield ([2]; above the critical micelle concentration for CTAB, no fluorescer): 19 fold
chemiluminescence quantum yield (ΦCl) ([3]; DMSO): 0.25

COC1(c2cccc(OP(=O)(O)O)c2)OOC12C1CC3CC(C1)CC2C3 (centres unmarked) [dioxetane 2c, 4-Methoxy-4-(3-phosphatephenyl)spiro[1,2-dioxetane-3,2'-adamantane], disodium salt]
chemiluminescence quantum yield (ΦCl) ([4]; with CTAB (1.13×10^-3), no fluorescer): 2.1×10^-4
chemiluminescence quantum yield (ΦCl) ([4]; with CTAB (1.13×10^-3 M) and fluorescein surfactant 3 (5.6×10^-5 M), pH 9.1, 37° C.): 0.015
chemiluminescence efficiency ([4]; with CTAB and fluorescein surfactant 3): 1.5%

COC(=O)c1cccc(O)c1 [methyl 3-hydroxylbenzoate, methyl 3-hydroxybenzoate]
fluorescence quantum yield of the ester (ΦF) ([1]; same conditions as fluoride-triggered decomposition): 0.44
fluorescence of cleavage product in water ([3]; water): only weakly fluorescent
